Results as given in publication PMC4053365 (PLoS ONE, 2014).

How the values were obtained:
mice [1] = test: Hot-plate test (acute thermal nociception); format: in vivo; details: Mus musculus, sc, 0.5 h, s.c., 30 min after administration, read-out: ED50 (95% CL) Hot-plate test
mice [2] = test: Tail-flick test (acute thermal nociception); format: in vivo; details: Mus musculus, sc, 0.5 h, s.c., 30 min after administration, read-out: ED50 (95% CL) Tail-flick test

Question: What does the source list for `CN1CC[C@]23c4c5ccc(O)c4O[C@H]2[C@@H](O)C=C[C@H]3[C@H]1C5` [Morphine, reference compound]?
Answer: ED50 (mice [1]): 2.43 mg/kg; ED50 (mice [2]): 3.06 mg/kg
